Literature values in patent US20250237641A1 (priority 2021, published 2025).
At least one structure is not confirmed: it was looked up by name or label, or the drawing left a doubt.

System: COVID-19 patients
Conditions: cited from earlier work

In the case of `CCC(CC)COC(=O)[C@H](C)N[P@](=O)(OC[C@H]1O[C@@](C#N)(c2ccc3c(N)ncnn23)[C@H](O)[C@@H]1O)Oc1ccccc1` [remdesivir], the “efficacy in lowering mortality or reducing infection” value is given as “not efficacious”.
